# Reference: patent US20110281950A1, “COMPOSITIONS AND METHODS FOR REDUCING PROLIFERATION AND VIABILITY OF LYMPHOBLASTOID CELLS” (priority 2010, published 2011)
# System: Purified NK cells
# Test: NK cell 51Cr release cytotoxicity assay, continuous treatment or washout (Example 7)
# Type: cell-based
# Details: SAHA 100, 500, 1000 nM; valproate 1, 2 mM
# Source text: Purified NK cells in DMSO were used as a control. The cells were subsequently analyzed in an IFNγ ELISPOT assay or a ^51Cr release cytotoxicity assay.
structure (smiles),measurement,value
"O=C(CCCCCCC(=O)Nc1ccccc1)NO [SAHA, suberoylanilide hydroxamic acid, reference compound]",ADCC inhibition,no significant ADCC inhibition
